The results in this text go back to publication PMC6222410, “Design, Synthesis and Docking Studies of Novel Macrocyclic Pentapeptides as Anticancer Multi-Targeted Kinase Inhibitors” (Molecules : A Journal of Synthetic Chemistry and Natural …, 2018).

Molecules are shown by their SMILES.

In one experiment the test system is HepG-2 cell line. Description: In vitro cytotoxicity on HepG-2 cell line. It is filed as cell-based. Particulars: HepG2; HepG-2 human hepatocellular carcinoma cells; concentration inhibiting cell viability by 50%; mean of three values; read-out: IC50 (Mean ± SEM) HepG-2. From the text:
(§1) In vitro bioassay on human cancer cell lines was adopted against two cancer cell lines (MCF-7 and HepG-2). HepG2, human hepatocellular carcinoma and MCF-7, human breast cancer cell lines were obtained from Sigma-Aldrich Chemie GmbH, Taufkirchen, Germany. Tamoxifen and 5-fluorouracil were used as reference standards according to a previously reported method.

The test system of the next experiment is MCF-7 cell line. The experiment is described as follows: In vitro cytotoxicity on MCF-7 cell line. Particulars: MCF7; MCF-7 human breast cancer cells; concentration inhibiting cell viability by 50%; mean of three values; read-out: IC50 (Mean ± SEM) MCF-7. It is filed as cell-based.
Excerpt: as §1

Consider `CC/C(=C(\c1ccccc1)c1ccc(OCCN(C)C)cc1)c1ccccc1` [Tamoxifen, reference compound], for which the IC50 was found to be 29.4 ± 1.15 µM in the experiment on HepG-2 cell line and 22.4 ± 2.42 µM in the experiment with MCF-7 cell line.

By IC50 is commonly meant the point on the concentration scale where inhibition reaches its midpoint.
